# From paper PMC11399591
# Sequences of proteins named here, by UniProt entry; tags and fusion partners are left off. Residues count along the entry.
# UniProt Q96J86, residues 30-154: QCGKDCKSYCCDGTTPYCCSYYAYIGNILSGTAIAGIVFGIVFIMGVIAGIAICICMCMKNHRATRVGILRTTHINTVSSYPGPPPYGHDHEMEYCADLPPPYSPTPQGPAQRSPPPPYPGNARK
# UniProt Q8IZ07: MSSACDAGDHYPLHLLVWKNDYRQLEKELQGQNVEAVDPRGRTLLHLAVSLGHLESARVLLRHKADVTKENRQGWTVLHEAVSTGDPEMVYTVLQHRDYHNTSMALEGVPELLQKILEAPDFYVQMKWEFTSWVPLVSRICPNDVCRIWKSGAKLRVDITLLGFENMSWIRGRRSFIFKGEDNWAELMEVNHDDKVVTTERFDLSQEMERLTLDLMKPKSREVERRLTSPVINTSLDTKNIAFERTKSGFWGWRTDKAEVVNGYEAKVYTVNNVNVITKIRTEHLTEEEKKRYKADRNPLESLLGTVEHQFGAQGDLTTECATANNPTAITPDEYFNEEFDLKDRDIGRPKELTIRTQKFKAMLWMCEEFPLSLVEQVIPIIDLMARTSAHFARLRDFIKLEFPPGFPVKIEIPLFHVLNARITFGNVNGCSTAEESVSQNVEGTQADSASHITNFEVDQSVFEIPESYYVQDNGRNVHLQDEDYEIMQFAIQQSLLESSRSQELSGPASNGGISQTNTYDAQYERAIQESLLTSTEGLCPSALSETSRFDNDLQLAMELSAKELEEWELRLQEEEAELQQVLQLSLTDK
# Results are given in words; binding and its absence hold for the method and conditions named. In cells and extracts the contact can be indirect. A yes stands for co-enrichment or nearness to the bait. Other partners may have been found.
# Molecular target: GFP-CYYR1 (UniProt Q96J86)
# Experiment: affinity purification with mass spectrometry; HEK293 transfected with GFP or GFP-CYYR1; lysis in IP150 buffer (20 mM Tris-HCl pH 7.5, 150 mM NaCl, 5 mM EDTA, 1% NP-40, 10% glycerol); 3.5 mg protein on GFP-Trap overnight at 4 °C; quantitative label-free mass spectrometry, n = 5
substance,measurement,value
endogenous ANKRD13A (from UniProt Q8IZ07 1-590),binding,binds
